Test results from article PMC12956874.
These are yes or no findings as the source states them, for the method shown. Some binding calls cover weakened binding; strength is not graded here. Tags and fused reporters may be left off the sequences shown.

What was measured:
[1] = biological target: T1, GAL4 BD-ScSgt2 1-346 (S. cerevisiae) (UniProt Q12118); assay: two-hybrid; growth-based assay in S. cerevisiae PJ69-4A; GAL4-AD and GAL4-BD fusions; -Leu -Trp -His -Ade (7 days) and -Leu -Trp -His + 5 mM 3-AT (10 days)
T1 sequence: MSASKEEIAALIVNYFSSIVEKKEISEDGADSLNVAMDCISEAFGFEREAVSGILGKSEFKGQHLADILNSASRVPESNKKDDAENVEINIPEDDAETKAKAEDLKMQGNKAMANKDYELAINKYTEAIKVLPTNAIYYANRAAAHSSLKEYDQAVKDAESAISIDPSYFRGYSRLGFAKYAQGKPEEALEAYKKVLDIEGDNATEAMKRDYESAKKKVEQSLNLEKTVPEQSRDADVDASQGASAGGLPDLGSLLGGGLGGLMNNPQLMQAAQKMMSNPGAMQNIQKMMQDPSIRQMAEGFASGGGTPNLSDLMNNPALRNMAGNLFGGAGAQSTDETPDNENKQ

[2] = biological target: T2, GAL4 BD-ScPCS60 1-543 (S. cerevisiae) (UniProt P38137); assay: as above
T2 sequence: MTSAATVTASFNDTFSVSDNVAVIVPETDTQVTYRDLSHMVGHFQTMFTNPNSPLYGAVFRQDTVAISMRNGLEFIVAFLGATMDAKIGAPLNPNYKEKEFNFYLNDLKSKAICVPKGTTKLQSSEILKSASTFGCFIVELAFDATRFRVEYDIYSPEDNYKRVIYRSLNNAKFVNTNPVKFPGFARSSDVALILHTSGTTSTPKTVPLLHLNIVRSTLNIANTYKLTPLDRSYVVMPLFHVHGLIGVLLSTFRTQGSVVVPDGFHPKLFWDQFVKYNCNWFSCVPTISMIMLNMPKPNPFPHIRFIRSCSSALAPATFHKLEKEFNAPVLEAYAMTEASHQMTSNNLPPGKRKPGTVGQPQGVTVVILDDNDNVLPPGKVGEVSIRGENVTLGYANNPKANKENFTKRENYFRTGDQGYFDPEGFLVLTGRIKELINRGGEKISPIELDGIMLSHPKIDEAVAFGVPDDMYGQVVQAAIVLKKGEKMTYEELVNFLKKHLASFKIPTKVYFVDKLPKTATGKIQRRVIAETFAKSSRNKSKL

[3] = biological target: T2, GAL4 BD-ScPCS60 1-543 (S. cerevisiae); assay: two-hybrid; colony-lift filter assay in S. cerevisiae PCY2; GAL4-AD and GAL4-BD fusions
[4] = biological target: T3, ScPEX19, yeast two-hybrid fusion (yeast) (UniProt Q07418); assay: two-hybrid; yeast two-hybrid shown in SI Appendix figures (S4, S8 C and D, S12C, S13B); read-out not told in the text shown
T3 sequence: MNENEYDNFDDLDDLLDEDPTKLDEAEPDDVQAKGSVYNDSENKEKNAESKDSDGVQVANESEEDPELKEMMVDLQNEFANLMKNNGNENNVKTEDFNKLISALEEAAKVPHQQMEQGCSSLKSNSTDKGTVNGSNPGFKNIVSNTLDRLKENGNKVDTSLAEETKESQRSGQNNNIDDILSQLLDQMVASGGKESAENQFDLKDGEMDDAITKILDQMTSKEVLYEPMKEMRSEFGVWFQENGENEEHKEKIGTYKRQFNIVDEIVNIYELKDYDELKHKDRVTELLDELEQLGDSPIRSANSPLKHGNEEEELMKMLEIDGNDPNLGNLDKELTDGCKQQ

B1: GAL4 AD-ScPEX19 1-342 (full-length) (protein, UniProt Q07418 1-342)
chain: MNENEYDNFDDLDDLLDEDPTKLDEAEPDDVQAKGSVYNDSENKEKNAESKDSDGVQVANESEEDPELKEMMVDLQNEFANLMKNNGNENNVKTEDFNKLISALEEAAKVPHQQMEQGCSSLKSNSTDKGTVNGSNPGFKNIVSNTLDRLKENGNKVDTSLAEETKESQRSGQNNNIDDILSQLLDQMVASGGKESAENQFDLKDGEMDDAITKILDQMTSKEVLYEPMKEMRSEFGVWFQENGENEEHKEKIGTYKRQFNIVDEIVNIYELKDYDELKHKDRVTELLDELEQLGDSPIRSANSPLKHGNEEEELMKMLEIDGNDPNLGNLDKELTDGCKQQ
binding [1]: binds weakly

B2: GAL4 AD-ScPEX5 1-612 (protein, UniProt P35056 1-612)
chain: MDVGSCSVGNNPLAQLHKHTQQNKSLQFNQKNNGRLNESPLQGTNKPGISEAFISNVNAISQENMANMQRFINGEPLIDDKRRMEIGPSSGRLPPFSNVHSLQTSANPTQIKGVNDISHWSQEFQGSNSIQNRNADTGNSEKAWQRGSTTASSRFQYPNTMMNNYAYASMNSLSGSRLQSPAFMNQQQSGRSKEGVNEQEQQPWTDQFEKLEKEVSENLDINDEIEKEENVSEVEQNKPETVEKEEGVYGDQYQSDFQEVWDSIHKDAEEVLPSELVNDDLNLGEDYLKYLGGRVNGNIEYAFQSNNEYFNNPNAYKIGCLLMENGAKLSEAALAFEAAVKEKPDHVDAWLRLGLVQTQNEKELNGISALEECLKLDPKNLEAMKTLAISYINEGYDMSAFTMLDKWAETKYPEIWSRIKQQDDKFQKEKGFTHIDMNAHITKQFLQLANNLSTIDPEIQLCLGLLFYTKDDFDKTIDCFESALRVNPNDELMWNRLGASLANSNRSEEAIQAYHRALQLKPSFVRARYNLAVSSMNIGCFKEAAGYLLSVLSMHEVNTNNKKGDVGSLLNTYNDTVIETLKRVFIAMNRDDLLQEVKPGMDLKRFKGEFSF
binding [2]: binds | binding [3]: binds

B3: ScSgt2, yeast two-hybrid fusion (protein, UniProt Q12118 1-346)
chain: MSASKEEIAALIVNYFSSIVEKKEISEDGADSLNVAMDCISEAFGFEREAVSGILGKSEFKGQHLADILNSASRVPESNKKDDAENVEINIPEDDAETKAKAEDLKMQGNKAMANKDYELAINKYTEAIKVLPTNAIYYANRAAAHSSLKEYDQAVKDAESAISIDPSYFRGYSRLGFAKYAQGKPEEALEAYKKVLDIEGDNATEAMKRDYESAKKKVEQSLNLEKTVPEQSRDADVDASQGASAGGLPDLGSLLGGGLGGLMNNPQLMQAAQKMMSNPGAMQNIQKMMQDPSIRQMAEGFASGGGTPNLSDLMNNPALRNMAGNLFGGAGAQSTDETPDNENKQ
binding [4]: binds weakly
